We go through 69 sequences from PubChem BioAssay AID1347426 (Functional Genomics Laboratory (NCATS/FGL), 2020).

Out of some 31,000 sequences screened, about 1,400 (4.5%) were called active.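 The calls were made as follows: active = median seed-adjusted z-score above 1 or below -1; inactive = the rest.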 Some of the results follow.

This test is described as follows: Novel Modifiers of Survival Motor Neuron (SMN) Protein: Gene Identification via Genome-wide siRNA Screen.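 Also: luminescence tracks full-length SMN protein made from the SMN2 reporter.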 Conditions: HEK293T SMN2-luciferase reporter, siRNA knockdown, 72 h; actives lie on both sides. Put shortly:
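Each of three siRNAs per gene is reverse-transfected (1 pmol) into reporter HEK293T cells whose luciferase output tracks SMN protein level. After 72 h culture, ONE-Glo luminescence is control-normalized, log10-transformed and MAD-standardized; Common Seed Analysis deprioritizes seed-driven hits.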
For orientation: In a reporter assay the amount or activity of a reporter protein is the signal.
Take GGUCUUUAUUCGGAAGCGATT against ZNF525: the median seed-adjusted z-score is inactive: 0.134. The same measure for GGAACAAGAGAAGAGGUUATT against DDX41: inactive: -0.611; for GCAUAGAAUGUCAAGCUAATT against RBX1: inactive: -0.000499; for GCGUGGUGCAGUUCUGUGATT against ASB2: inactive: -0.825. Consider GGACACCAAUGGAGACAUATT against TRIM3, for which the median seed-adjusted z-score was inactive: -0.215. The same measure for GCCUGGAAAUUGUCUACAATT against ATP4B: inactive: -0.609. For GCAUCGCCGAAGAUAGAUUTT against NUP153 the value was inactive: -0.847; for GGAUCAAGAUGCAAUUGAUTT against TRHDE, inactive: 0.429. The same measure for CUAUAACAUCGAAGACUUUTT against ARNT2: inactive: -0.244; for GAGCUGCAUUAUGAAAUUATT against CCL18: inactive: 0.169; for CCCGAUGCCGGAACAAGAATT against JDP2: inactive: -0.202. For GGACGGUUCUUGUUCCAGUTT against PDIA5, the median seed-adjusted z-score is inactive: 0.989. For GUGCUUCAGUAGGUAUGUATT against ASNS, the median seed-adjusted z-score is active: -1.1.

For the sequence GGAACUAGAUUACUUUGCUTT against PGK2, the median seed-adjusted z-score is inactive: -0.127. For GCACUUGGAUAGACAACAATT against SEC24D the value was inactive: 0.529; for GAUUUUUACCUUACGAUCATT against GPN3, inactive: -0.796. For CGAAUUCCUCGUCAACGAATT against HOXD12, the median seed-adjusted z-score is inactive: -0.18. The same measure for GGGUACCUCUCUGACAACATT against SLC25A10: inactive: -0.571; for GGAACCAAAUGCAAGGUUATT against GZMK: inactive: -0.303. GCCUGUAUAUGAGAGCCUUTT against OTUD7B: the median seed-adjusted z-score is inactive: 0.226. For GAAGAUGAGUUCUACCAGATT against VPS72 the value was inactive: 0.572. Regarding UCCUUAUCAUGAACCUGCATT against CHRNA10, the median seed-adjusted z-score was inactive: 0.521.

GGCAAACCGUUGGAACCAATT against AFF1: the median seed-adjusted z-score was inactive: -0.0394. As for UCCUCAACGUGGAUGAGAATT against HTR3A, the median seed-adjusted z-score was inactive: 0.37. For CAACCUUGCAGACAACGUATT against CEBPG, the median seed-adjusted z-score is inactive: -0.561.

On to GGGCAAAAUUCUCAGCGAATT against CIT, for which the median seed-adjusted z-score is inactive: -0.0585. The same measure for CAGUUGUUGUGGUUGAGAATT against STX2: inactive: 0.442; for CCGAAGCUGUGGAGGUGAATT against HTR5A: inactive: -0.0687.

GGUCACGUCUGUUACCUGATT against GBA3: the median seed-adjusted z-score is inactive: 0.246.

Take AGAACGUGGUCAUCAAAGUTT against ZC3H3: the median seed-adjusted z-score is inactive: -0.622. For GGCUUCAGGUUAUAGUCAATT against OTX2 the value was inactive: -0.00351; for GCUCCUUAAGGAUAACUAATT against NTRK2, inactive: 0.103. The same measure for ACUACCUUCUCAUCAAGGATT against CCL19: inactive: 0.0364; for GACCAGACAUCAAGCUUUATT against PARG: inactive: 0.

As to GGAAUAUUCUUCAGCUACATT against ZBTB24, the median seed-adjusted z-score is inactive: -0.156. For CGUGAAAAGUGAGCUAGAUTT against JDP2, the median seed-adjusted z-score is inactive: -0.202. For GGUCUGAUCCUGAACAACATT against ASPN the value was inactive: -0.0432; for AGCAAGAGAUUGACAAAAATT against LETM1, inactive: -0.491.

Take GUUGGUUUCUUCAAACGGATT against ITGAL: the median seed-adjusted z-score is inactive: 0.537.

In the case of ACAGAACCUUCGACAAGUATT against GCGR, the median seed-adjusted z-score is inactive: -0.224. The same measure for GCAUCAACCAAGACCUGUATT against CSGLCA-T: inactive: 0.146; for AGAAAUUUGUCACCUAUUUTT against RGL4: inactive: 0.201; for GCUCCUAUAACUCAAGUAATT against GPR158: inactive: 0.198. For GGAUAGAAUCUCCACUGAATT against RAE1, the median seed-adjusted z-score was inactive: 0.929. The same measure for CAACAAGAAUAAUGACGAATT against BCHE: inactive: 0.117; for GCAUUUCUUGGGUUGGUGATT against GABPA: active: 1.43; for GAACAUCUCCGCAACAAGATT against VAMP8: inactive: -0.184. For CCUCCGAUGUUGUCCUAGATT against GNL3, the median seed-adjusted z-score was inactive: 0.572.

For the sequence GGAUUAUUUCUGGUUCCUATT against ATP8A2, the median seed-adjusted z-score was inactive: 0. The same measure for GGAUAUCCGUGAUUGUUCATT against BNIP1: inactive: 0.259. CUCCUACGCUCUAUACAAATT against TRPM8: the median seed-adjusted z-score is inactive: 0.405. For GCCAGAGUCCUGAUGCACATT against GPR31 the value was inactive: -0.0381; for CCAGGACCUGACUCCUUUATT against GSG2, inactive: 0.804.

Turning to AGACGGCUCAGAUAGCAUATT against HMBS, the median seed-adjusted z-score was inactive: 0.422. On to CGAAUGAUGUGAAGCAUCATT against PRKX, for which the median seed-adjusted z-score is inactive: 0.0341. The same measure for CGUUCCAGGUUUUUGUAUUTT against CD244: inactive: 0; for CAAUGAUUCUUGUUGGUAATT against RAP1B: inactive: -0.0262; for GGUCGUGAAUUGUACAGCATT against HERC1: inactive: 0.168. Consider GUUGUUCUCAGGUCUGAAUTT against ACOT2, for which the median seed-adjusted z-score is inactive: 0.578.

Consider GGAGAUUGGGAGCAACAAATT against NLRP11, for which the median seed-adjusted z-score was inactive: 0.181. As to GAUGGAUACCUCUACCUGATT against ZNF593, the median seed-adjusted z-score was inactive: 0.215. The same measure for AGGUGAAUGCGCUCACUUATT against ELMO3: inactive: -0.0898; for GACCAAGACUCAAUCCAUUTT against SLC1A2: inactive: 0.249. The same measure for GGGAUGCUCUUCACAGCUATT against SEMA6B: inactive: 0.311. Consider GAAUGACUGUCACCGCAUATT against DCP1A, for which the median seed-adjusted z-score is inactive: 0.361. GAUUAUCGAGGUUAAAAAUTT against LONP1: the median seed-adjusted z-score is inactive: -0.291. GGAGCGAAUGAAUACCCUUTT against DYNC1H1: the median seed-adjusted z-score is inactive: 0. The same measure for GCAUUCAUCACUUCGAAAATT against BNC2: inactive: -0.0556. For GGAUAGUGAUGCCUACGAATT against F11R the value was inactive: -0.329.
